From article doi:10.1101/2023.05.31.543024
No constants are given. Whether binding was seen depends on the method and setting. Binding seen in cells or lysates may run through a third protein. Some binding calls cover weakened binding; strength is not graded here. Sequences can lack the tags named with a protein.

Assays:
[1] = biological target: T1, HA-DRG1 LIYVD (L155E + I260R + Y262A + V264K + D280Y) (human) (UniProt Q9Y295); assay: co-IP
T1 sequence: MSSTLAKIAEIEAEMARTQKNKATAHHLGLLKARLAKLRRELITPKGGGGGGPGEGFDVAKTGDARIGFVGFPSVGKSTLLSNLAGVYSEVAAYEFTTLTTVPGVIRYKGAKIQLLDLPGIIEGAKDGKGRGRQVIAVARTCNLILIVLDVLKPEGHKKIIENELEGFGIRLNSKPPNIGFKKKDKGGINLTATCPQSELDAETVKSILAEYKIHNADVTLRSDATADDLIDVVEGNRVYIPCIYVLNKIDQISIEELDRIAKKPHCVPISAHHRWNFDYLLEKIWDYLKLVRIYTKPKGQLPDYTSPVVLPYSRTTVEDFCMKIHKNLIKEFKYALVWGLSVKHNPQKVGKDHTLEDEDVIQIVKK

[2] = biological target: T2, HA-DRG2 E153L + R258I + A260Y + Y278D (human) (UniProt P55039); assay: co-IP
T2 sequence: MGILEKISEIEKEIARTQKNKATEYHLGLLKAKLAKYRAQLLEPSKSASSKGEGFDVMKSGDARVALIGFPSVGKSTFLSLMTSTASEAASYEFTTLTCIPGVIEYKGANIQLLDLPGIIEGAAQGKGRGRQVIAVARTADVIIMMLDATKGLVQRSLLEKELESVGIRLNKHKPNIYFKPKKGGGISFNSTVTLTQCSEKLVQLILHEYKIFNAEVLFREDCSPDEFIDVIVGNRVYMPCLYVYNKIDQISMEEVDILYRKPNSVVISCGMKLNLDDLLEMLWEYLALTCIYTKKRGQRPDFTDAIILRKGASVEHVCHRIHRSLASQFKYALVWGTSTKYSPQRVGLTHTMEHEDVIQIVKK

B1: DRG family regulatory protein 2 (DFRP2), endogenous (protein, UniProt Q9H446 1-243)
chain: MTDYGEEQRNELEALESIYPDSFTVLSENPPSFTITVTSEAGENDETVQTTLKFTYSEKYPDEAPLYEIFSQENLEDNDVSDILKLLALQAEENLGMVMIFTLVTAVQEKLNEIVDQIKTRREEEKKQKEKEAEEAEKQLFHGTPVTIENFLNWKAKFDAELLEIKKKRMKEEEQAGKNKLSGKQLFETDHNLDTSDIQFLEDAGNNVEVDESLFQEMDDLELEDDEDDPDYNPADPESDSAD
binding [1]: binds | binding [2]: no binding
